Laboratory results from publication PMC5862892, “Near-native, site-specific and purification-free protein labeling for quantitative protein interaction analysis by MicroScale Thermophoresis” (Scientific Reports, 2018).

Tested on: RED-tris-NTA/His6-peptide interaction
Assay: Buffer additive screen: His6-peptide titrated against RED-tris-NTA with additives in PBST
Format: binding

SMILES | Maximum allowed assay concentration (in words) (tested at 100 nM, ions compete for binding with tris-NTA fluorophores) | Maximum allowed assay concentration (highest additive concentration that did not alter the Kd of His6-peptide/RED-tris-NTA, PBST)
[Co+2] [Co(II)] | preloaded protein only | 
Cl.O=C(O)CCP(CCC(=O)O)CCC(=O)O [TCEP, tris(2-carboxyethyl)phosphine hydrochloride] |  | 0.5 mM
